# In the supplement of paper PMC6411743:
# ± gives the standard deviation of the averaged measurements. Only a part is listed here, and it is no random draw.
# Tests used:
# Test in all cases: NP40-soluble protein abundance relative to vehicle (solubility fold change) (ratio); higher = more soluble protein in presence of ATP
# [1] = target: T1, A0A087WXF8|A0A087WXU5|A0A087WYF0|A0A0D9SEW3|Q9NP64 and related entries (UniProt Q9NP64)
# T1 sequence (whole entry): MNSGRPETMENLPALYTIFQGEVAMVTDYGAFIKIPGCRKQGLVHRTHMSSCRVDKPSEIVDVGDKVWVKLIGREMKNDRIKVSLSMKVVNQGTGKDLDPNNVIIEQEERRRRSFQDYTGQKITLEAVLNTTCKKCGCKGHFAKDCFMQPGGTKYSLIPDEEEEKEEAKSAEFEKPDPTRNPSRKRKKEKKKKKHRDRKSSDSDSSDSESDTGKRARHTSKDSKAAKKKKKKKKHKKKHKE
# Procedure, shortened: (§1)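 Crude Jurkat lysate, prepared by Dounce homogenisation, was exposed to eight concentrations from 0.1 to 10 mM for 10 min at room temperature and then 3 min at 37 °C. Solubilisation used 0.8% NP40 with benzonase for 60 min at 4 °C, followed by ultracentrifugation and TMT labelling of the supernatant for LC-MS/MS. After vsn normalisation of intensities, each value is the fold change against the detergent-processed vehicle within each replicate, across three independent experiments.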
# [2] = target: T2, A0A087WXR2|F5H1Z6 and related entries (UniProt Q9Y365)
# T2 sequence (whole entry): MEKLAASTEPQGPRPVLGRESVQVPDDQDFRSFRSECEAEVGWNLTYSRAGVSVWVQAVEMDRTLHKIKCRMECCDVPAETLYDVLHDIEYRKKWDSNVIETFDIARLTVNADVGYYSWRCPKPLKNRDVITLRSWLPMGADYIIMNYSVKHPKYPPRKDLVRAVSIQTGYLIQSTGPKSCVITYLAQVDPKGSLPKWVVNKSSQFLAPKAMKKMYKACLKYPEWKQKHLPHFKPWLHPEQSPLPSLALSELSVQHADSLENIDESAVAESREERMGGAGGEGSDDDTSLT
# Procedure, shortened: as §1
# [3] = target: T3, A0A087X0R6|Q9UMY4 and related entries (UniProt Q9UMY4)
# T3 sequence (whole entry): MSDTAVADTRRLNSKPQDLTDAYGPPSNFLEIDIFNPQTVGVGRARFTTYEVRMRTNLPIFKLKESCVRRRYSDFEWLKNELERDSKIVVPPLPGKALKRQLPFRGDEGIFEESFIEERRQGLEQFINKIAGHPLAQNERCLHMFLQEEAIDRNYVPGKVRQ
# Procedure, shortened: as §1
# A0A087X1S7|P09326 = target: T4, A0A087X1S7|P09326 (UniProt P09326)
# T4 sequence (whole entry): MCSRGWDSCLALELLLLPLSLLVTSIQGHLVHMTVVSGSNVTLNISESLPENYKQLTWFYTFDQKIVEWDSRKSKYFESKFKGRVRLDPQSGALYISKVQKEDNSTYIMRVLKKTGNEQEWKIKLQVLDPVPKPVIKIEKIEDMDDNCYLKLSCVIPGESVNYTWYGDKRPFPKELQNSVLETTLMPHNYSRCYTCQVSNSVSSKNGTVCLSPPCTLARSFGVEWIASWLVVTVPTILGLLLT
# Procedure, shortened: as §1
# [4] = target: T5, A0A0A0MRK6|Q13505 and related entries (UniProt Q13505)
# T5 sequence (whole entry): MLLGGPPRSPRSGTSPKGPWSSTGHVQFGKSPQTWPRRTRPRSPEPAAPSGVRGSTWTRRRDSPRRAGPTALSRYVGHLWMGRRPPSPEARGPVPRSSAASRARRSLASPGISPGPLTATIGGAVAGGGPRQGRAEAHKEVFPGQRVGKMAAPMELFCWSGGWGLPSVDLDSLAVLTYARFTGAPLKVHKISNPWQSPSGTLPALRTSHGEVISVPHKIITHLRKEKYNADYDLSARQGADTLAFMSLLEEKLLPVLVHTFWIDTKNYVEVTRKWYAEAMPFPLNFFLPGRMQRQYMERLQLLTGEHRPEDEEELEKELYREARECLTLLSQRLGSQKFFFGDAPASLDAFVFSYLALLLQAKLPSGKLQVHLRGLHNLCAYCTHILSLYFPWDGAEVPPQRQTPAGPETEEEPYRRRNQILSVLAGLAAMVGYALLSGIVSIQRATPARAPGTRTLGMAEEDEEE
# Procedure, shortened: as §1
smiles,measurement,setting,value
Nc1ncnc2c1ncn2[C@@H]1O[C@H](COP(=O)(O)OP(=O)(O)OP(=O)(O)O)[C@@H](O)[C@H]1O [adenosine triphosphate],NP40-soluble protein abundance,[1]; concentration: 6mM,0.8248 ± 0.0033
same,NP40-soluble protein abundance,[1]; concentration: 8mM,0.864 ± 0.024
same,NP40-soluble protein abundance,[1]; concentration: 10mM,0.8762 ± 0.003
same,NP40-soluble protein abundance,[2]; concentration: 1mM,0.996 ± 0.1
same,NP40-soluble protein abundance,[2]; concentration: 2mM,1.01 ± 0.06
same,NP40-soluble protein abundance,[2]; concentration: 4mM,1.09 ± 0.073
same,NP40-soluble protein abundance,[2]; concentration: 6mM,0.97 ± 0.051
same,NP40-soluble protein abundance,[2]; concentration: 8mM,1.03 ± 0.081
same,NP40-soluble protein abundance,[2]; concentration: 10mM,1.07 ± 0.077
same,NP40-soluble protein abundance,[3]; concentration: 1mM,0.969 ± 0.074
same,NP40-soluble protein abundance,[3]; concentration: 2mM,0.959 ± 0.039
same,NP40-soluble protein abundance,[3]; concentration: 4mM,0.934 ± 0.053
same,NP40-soluble protein abundance,[3]; concentration: 6mM,0.935 ± 0.018
same,NP40-soluble protein abundance,[3]; concentration: 8mM,0.971 ± 0.031
same,NP40-soluble protein abundance,[3]; concentration: 10mM,0.908 ± 0.042
same,NP40-soluble protein abundance,A0A087X1S7|P09326; concentration: 1mM,0.935 ± 0.12
same,NP40-soluble protein abundance,A0A087X1S7|P09326; concentration: 2mM,0.931 ± 0.034
same,NP40-soluble protein abundance,A0A087X1S7|P09326; concentration: 4mM,0.922 ± 0.039
same,NP40-soluble protein abundance,A0A087X1S7|P09326; concentration: 6mM,0.961 ± 0.073
same,NP40-soluble protein abundance,A0A087X1S7|P09326; concentration: 8mM,0.899 ± 0.025
same,NP40-soluble protein abundance,A0A087X1S7|P09326; concentration: 10mM,0.84 ± 0.06
same,NP40-soluble protein abundance,[4]; concentration: 1mM,1.03 ± 0.097
same,NP40-soluble protein abundance,[4]; concentration: 2mM,1.03 ± 0.11
same,NP40-soluble protein abundance,[4]; concentration: 4mM,0.998 ± 0.1
same,NP40-soluble protein abundance,[4]; concentration: 6mM,0.952 ± 0.13
same,NP40-soluble protein abundance,[4]; concentration: 8mM,1.01 ± 0.096
same,NP40-soluble protein abundance,[4]; concentration: 10mM,0.98 ± 0.098
